{"source": "PubChem BioAssay AID686943 (Drosophila RNAi Screening Center, 2013)", "assay": "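Search across the genome for regulators of signalling from receptor tyrosine kinase to ERK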 (primary screen)", "cells": "Drosophila S2R+ haemocyte-like cells expressing YFP-tagged ERK (Rolled)", "reagent": "long dsRNA against Drosophila genes", "treatment": "insulin stimulation versus unstimulated cells; dose and duration not given", "detection": "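Per-plate z-scores of phospho-ERK immunostaining normalised to YFP-tagged ERK, measured with and without insulin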", "reading the numbers": "replicate 1, z-score of dpERK with insulin: higher = more active ERK per ERK-YFP after insulin", "note": "In all, the deposit lists about 23,000 reagents; below is a random part of those that have a named target and a result. 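Extra replicates exist only for a retested subset of genes; insulin dose and duration not given; both raised and lowered dpERK matter.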 Reagents against one gene are numbered here. Names joined by + are all predicted targets of the reagent. Not all columns of the deposit are shown. Reagent sequences are not shown. The record does not give: the amount of reagent, the time to read-out."}
{"gene": "l(3)neo43", "reagent": 1, "replicate 1, z-score of dpERK with insulin": 0.94}
{"gene": "CG34309", "reagent": 1, "replicate 1, z-score of dpERK with insulin": 0.23}
{"gene": "Or43a", "reagent": 1, "replicate 1, z-score of dpERK with insulin": 0.86}
{"gene": "CG9624", "reagent": 1, "replicate 1, z-score of dpERK with insulin": 0.36}
{"gene": "Mal-A5", "reagent": 1, "replicate 1, z-score of dpERK with insulin": 0.02}
{"gene": "gsb-n", "reagent": 1, "replicate 1, z-score of dpERK with insulin": 0.22}
{"gene": "gsb-n", "reagent": 2, "replicate 1, z-score of dpERK with insulin": 0.52}
{"gene": "fiz", "reagent": 1, "replicate 1, z-score of dpERK with insulin": 1.43}
{"gene": "CG12061", "reagent": 1, "replicate 1, z-score of dpERK with insulin": -1.36}
{"gene": "Spps", "reagent": 1, "replicate 1, z-score of dpERK with insulin": -0.1}
{"gene": "Pdxk", "reagent": 1, "replicate 1, z-score of dpERK with insulin": -0.76}
{"gene": "CG32236", "reagent": 1, "replicate 1, z-score of dpERK with insulin": 0.36}
{"gene": "Ccz1", "reagent": 1, "replicate 1, z-score of dpERK with insulin": -0.42}
{"gene": "CG17047", "reagent": 1, "replicate 1, z-score of dpERK with insulin": 0.93}
{"gene": "pch2", "reagent": 1, "replicate 1, z-score of dpERK with insulin": -0.36}
{"gene": "in", "reagent": 1, "replicate 1, z-score of dpERK with insulin": -0.68}
{"gene": "AMPKalpha", "reagent": 1, "replicate 1, z-score of dpERK with insulin": -0.21}
{"gene": "CG7328", "reagent": 1, "replicate 1, z-score of dpERK with insulin": 0.12}
{"gene": "Vmat + CG13330", "reagent": 1, "replicate 1, z-score of dpERK with insulin": -0.09}
{"gene": "bug", "reagent": 1, "replicate 1, z-score of dpERK with insulin": 0.4}
{"gene": "pigs", "reagent": 1, "replicate 1, z-score of dpERK with insulin": -0.09}
{"gene": "pigs", "reagent": 2, "replicate 1, z-score of dpERK with insulin": 0.3}
{"gene": "pigs", "reagent": 3, "replicate 1, z-score of dpERK with insulin": -0.22}
{"gene": "CG13884", "reagent": 1, "replicate 1, z-score of dpERK with insulin": 0.14}
{"gene": "CG9021", "reagent": 1, "replicate 1, z-score of dpERK with insulin": 0.65}
{"gene": "CG34228", "reagent": 1, "replicate 1, z-score of dpERK with insulin": 0.16}
{"gene": "srl", "reagent": 1, "replicate 1, z-score of dpERK with insulin": 0.38}
{"gene": "Gos28", "reagent": 1, "replicate 1, z-score of dpERK with insulin": 0.94}
{"gene": "Gos28", "reagent": 2, "replicate 1, z-score of dpERK with insulin": 0.82}
{"gene": "CG14971", "reagent": 1, "replicate 1, z-score of dpERK with insulin": -0.19}
{"gene": "JMJD5", "reagent": 1, "replicate 1, z-score of dpERK with insulin": -0.41}
